{
  "sequences": {"note": "Sequences of proteins named here, by UniProt entry; tags and fusion partners are left off.", "UniProt P04637, whole entry, looked up": "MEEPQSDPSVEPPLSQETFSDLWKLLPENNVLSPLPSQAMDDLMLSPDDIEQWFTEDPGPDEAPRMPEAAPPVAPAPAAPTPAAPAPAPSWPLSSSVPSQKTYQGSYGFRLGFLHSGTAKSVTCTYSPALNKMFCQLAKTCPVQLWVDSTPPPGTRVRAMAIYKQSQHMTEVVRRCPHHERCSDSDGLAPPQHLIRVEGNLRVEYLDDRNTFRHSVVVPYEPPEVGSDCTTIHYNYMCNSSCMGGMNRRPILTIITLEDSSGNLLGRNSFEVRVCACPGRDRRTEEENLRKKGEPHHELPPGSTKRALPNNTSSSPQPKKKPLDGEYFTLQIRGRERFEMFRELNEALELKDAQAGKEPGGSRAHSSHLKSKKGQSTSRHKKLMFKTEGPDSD"},
  "source": "PubChem BioAssay (EPA / NIEHS)",
  "note": "This list was built around the results that the source calls inconclusive (neither active nor inactive); the mix of calls is not that of the screen. Potencies beside an inconclusive call are fits to weak or partial responses and may not hold up. Calls of active or inactive are those of the source. How the source made its calls: active means hit-call score of the fitted dose curve at least 0.9, where 1 is the maximum; inconclusive means response in the unintended direction; inactive means score below 0.9.",
  "data": [
    {"target": "Cellular tumor antigen p53 (Homo sapiens) (UniProt P04637)", "test": "TOX21_p53_BLA_p3_ratio: Tox21 HCT-116 p53 Agonism Beta-lactamase Assay, Ratio, Phase 3 (AID 2283596)", "how_it_was_run": "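HCT116 p53-bla cells (4000/well) given compound in DMSO (217-fold dilution) after 5 h, incubated 16 h at 37C. CCF4-AM substrate 2 h at room temperature; 460/530 nm emission ratio, gain fitted against DMSO.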", "values": [
      {"smiles": "CCC(=O)OC1(c2ccccc2)CCN(C)CC1", "AC50": "inconclusive: 52.9 µM"},
      {"smiles": "CCC(COC(=O)c1cc(OC)c(OC)c(OC)c1)(c1ccccc1)N(C)C", "note": "(configuration not stated)", "AC50": "inconclusive: 23 µM"},
      {"smiles": "CCN1C[C@]2(COC)[C@H](O)C[C@H](OC)[C@@]34[C@@H]5C[C@@]6(O)[C@H](OC(=O)c7ccccc7)[C@@H]5[C@@](OC(C)=O)([C@@H]([C@H](OC)[C@H]23)[C@@H]14)[C@@H](O)[C@@H]6OC", "AC50": "inconclusive: 23 µM"},
      {"smiles": "C=CC(=O)OCC(C)C", "AC50": "inconclusive: 45.8 µM"},
      {"smiles": "CC1=C2[C@H]3OC(=O)[C@@H](C)[C@@H]3CC[C@@]2(C)C=CC1=O", "AC50": "inconclusive: 32.5 µM"},
      {"smiles": "CC[N+](C)(CC)CCOC(=O)C(O)(c1ccccc1)c1ccccc1", "outcome": "inactive"},
      {"smiles": "CN(C)CCc1c[nH]c2cccc(OP(=O)(O)O)c12", "AC50": "inconclusive: 45.4 µM"},
      {"smiles": "CC(Cl)Cl", "AC50": "inconclusive: 37.5 µM"},
      {"smiles": "ClC(Cl)(Cl)Cl", "AC50": "inconclusive: 45.4 µM"},
      {"smiles": "Cc1coc2c1CCC(C)C2", "note": "(configuration not stated)", "AC50": "inconclusive: 47.4 µM"},
      {"smiles": "CC[C@@H](CO)NC(=O)[C@@H]1C=C2c3cccc4[nH]cc(c34)C[C@H]2N(C)C1", "outcome": "inactive"},
      {"smiles": "C[C@]12CC[C@@H]3c4ccc(OC(=O)N(CCCl)CCCl)cc4CC[C@H]3[C@@H]1CC[C@@H]2O", "AC50": "active: 29 µM"},
      {"smiles": "C(CCOCC1CO1)COCC1CO1", "note": "(configuration not stated)", "AC50": "active: 65.2 µM"},
      {"smiles": "CC(Cc1ccccc1)NCCn1cnc2c1c(=O)n(C)c(=O)n2C", "note": "(configuration not stated)", "outcome": "inactive"},
      {"smiles": "ClC=C(Cl)Cl", "AC50": "inconclusive: 39.3 µM", "outcome": "inactive"},
      {"smiles": "CCCC(C)(COC(N)=O)COC(=O)NC(C)C", "note": "(configuration not stated)", "AC50": "inconclusive: 23 µM"}
    ]}
  ]
}
